In all, about 52,000 sequences went through this assay and about 210 (0.4%) were called active.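 How the source made its calls: active means gene whose silencing raises cell survival under the drug, median off-target-corrected z-score across its silencing RNAs 2 or more; inactive means the rest.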 This is one part of the list.

Experimental findings from PubChem BioAssay AID1347423 (Functional Genomics Laboratory (NCATS/FGL), 2020) are described below.

A short description of the assay: Resistance to Poly (ADP-Ribose) Polymerase inhibitor: Gene Identification via Genome-wide siRNA Screen. The settings on record: mouse BRCA2 R2336H ES cells, olaparib, CellTiter-Glo viability; hits give high values. A digest of the protocol: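 Genome-wide siRNA screen (3 siRNAs/gene, 20 nM) in mouse ES cells carrying hypomorphic BRCA2 R2336H; olaparib 500 nM added 48 h post-transfection, CellTiter-Glo viability 72 h later. Normalized to plate-median negative control; MAD z-scores, gene median, seed-adjusted.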
Regarding GGGCUUAUGUUUCCAGACCTT against LOC381813, the z-score is inactive: 0.288.
As to GGUUUUUAUUUAAAGCACGTT against Atp5a1, the z-score is inactive: -0.0394.
With GCCUAUUACCUACACACAGTT against Rhof, the z-score is inactive: -0.0393.
As to “GCAGGUAUAAGAAGAGAAUTT against 1700128F08Rik”, the z-score is inactive: 0.056.
In the case of CCAUGGUUAUUAAUUAUGGTT against Slc24a4 it was inactive: 0.997; in that of GGGAGGUGCAGCUGAUGAATT against Tesk1, inactive: 1.84.
Turning to “GGAGCAUUGCUCUUCUUCATT against 1110007L15Rik”, the z-score was inactive: 1.91.
As to GGCCUAUUCAGCGAAGAUGTT against Ppp5c, the z-score is inactive: 0.104.
In the case of CCCAGACGAGGAUUUAUCCTT against Chd4, the z-score is inactive: -0.298.
Regarding GCAAAUCCACGCUAAAGCATT against Nxph1, the z-score was inactive: -0.154.
Regarding GGGAGGUACUCAAGGUUCATT against Tcfe3, the z-score is inactive: -0.858.
In the case of “GGGAUAUGCAGAGAAUAGATT against 1700095F04Rik” it was inactive: 0.424; in that of GCAGAGGUCUUACAAUUUATT against Epb4.1l2, inactive: -0.347.
As for “GGCGAGCGACUGUGUAAAGTT against 6330503K22Rik”, the z-score is inactive: 0.72.
In the case of GGCUCAGAUCUGGGACACUTT against Rab11b it was inactive: -1.87.
The same measure for “GGAUGAUUUGGCCAACACCTT against 0610007C21Rik”: inactive: 1.19; for GGAGCACAGGCUCAGAAAATT against Ltb: inactive: 1.23.
The same measure for CCAAUGGGCGUAAUCACUUTT against Obox3: inactive: -1.29.
Turning to GGUGGAAGUGUAAAUAUCATT against Ptprd, the z-score is inactive: 1.43.
With GGAAGUUUCUGGAAACACATT against Mbd3, the z-score is inactive: -0.241.
Consider GGUGGAAAAGUGAAAAAGGTT against Ddx18, for which the z-score is inactive: 1.06.
As for “CGAGAUAGAGUCUGGAAUUTT against 1700092C17Rik”, the z-score was inactive: -0.353.
In the case of GAAGCUGAGUAUCUAUGGUTT against ORF18 it was inactive: 0.241; in that of GGAAGAAAUGCAUAAUGCATT against Mesdc2, inactive: 0.109.
For the sequence GGUAUAUGUAACGUGUACUTT against Ercc4, the z-score is inactive: -0.141.
Turning to GGUCCAAGUCCGUCUACUATT against Acbd3, the z-score was inactive: -1.85.
On to GGAACACUCCAGUUUGAAUTT against Thsd1, for which the z-score is inactive: 0.915.
In the case of GGAAUUAGCUGAACAUUGUTT against Txndc8 it was inactive: -1.6.
The same measure for GGCUGUAGACAAAGAAUAUTT against Ecel1: inactive: 0.569; for “GGGAUUUUAGAAGCUAUGATT against A830018L16Rik”: inactive: -1.93.
Consider GCGAGAAUUGGACAAAUUATT against Cach, for which the z-score is inactive: 0.292.
Regarding CCCUGAACCCUAACAUCACTT against Tcirg1, the z-score is inactive: 1.05.
Consider GGGUAAAAAGCUAGGUUUGTT against Acyp1, for which the z-score is inactive: 0.148.
The same measure for AAACAUCACCAACAUCAGUTT against Olfr6: inactive: -1.34; for GCCAGGACAAUCUGACUAUTT against Napsa: inactive: 0.781.
In the case of GGAUCCUGAUCAGCUAUAUTT against Gcn5l2, the z-score is inactive: -1.1.
As to GCUACCAUAUAUAUCUCACTT against Nox3, the z-score was inactive: 0.387.
Turning to GCUUAUCCGCCAUCAAAGATT against AI854635, the z-score was inactive: 1.95.
The same measure for GCUCUUGGAGCAUUUGUAGTT against Rab32: inactive: 0.522.
As for GGAGAUCGUGCAAUUCAUUTT against Rasl2-9, the z-score is inactive: -0.53.
With GCCAUGUGCUGGAAAACUCTT against Pfc, the z-score was inactive: 0.523.
As for CCCUGUUACUGGAUGCAGUTT against Olfr624, the z-score is inactive: -2.16.
In the case of “GGACCUUAAAGAAACAUUUTT against 1700069O15Rik” it was inactive: -1.94.
Consider GGAUAGACAGAGAAAAGAUTT against Pcdhgb1, for which the z-score is inactive: -1.49.
In the case of GGAGAUGAGCUGUAUGUGATT against D7Rp2e it was inactive: -0.125; in that of “CGAUUCAAUGUACCUGUAATT against 1110005A23Rik”, inactive: -0.618; in that of CCUCAUCAUAUUCUCCUGATT against Olfr869, inactive: -0.344.
Turning to “GGGCAUCGGAGCUUUCUUATT against 9530009G21Rik”, the z-score is inactive: 0.998.
Consider GGGAUUUCUAUCAAGGGACTT against Klf16, for which the z-score was inactive: 0.781.
Take “GGUUUUGUUAAAGAAGACGTT against 4833439L19Rik”: the z-score is inactive: 0.242.
Turning to GCGGCAGUUUGAUUUUGGUTT against Wsb2, the z-score is inactive: -1.44.
With GCAACCAACUAUGGACCGCTT against Sec24d, the z-score is inactive: 0.173.
The same measure for “GCUAAGGACUGAGGUGCUUTT against 0610009D07Rik”: inactive: 2.02; for CCGUCCAUUGCACUGGAUATT against Arntl2: inactive: -1.75; for GCUGAUACUUGUGUCUUCUTT against Sepp1: inactive: -1.15.
Regarding GGAGUAUUUACACUUCGACTT against H2-Ob, the z-score is inactive: -0.0524.
Regarding GGUAAAAUCACAGAAGAAGTT against Ddx55, the z-score was inactive: 1.33.
As to GGGCUUGUUGUCCUACUUCTT against Olfr390, the z-score was inactive: 0.0889.
In the case of GGACAUAGAUCUACCUGAATT against Ctsb it was inactive: -0.683; in that of GCCUUGGCAGUAGUCUACUTT against Olfr429, inactive: -0.992; in that of GGUCCAUGAUUGAAACACGTT against Srpr, inactive: 0.466.
Regarding GGACUAUUUCACAAACGCATT against Moxd1, the z-score was inactive: -0.126.
Regarding GGUAUUUUUCAUGGCUCUCTT against Olfr305, the z-score was inactive: 1.09.
As to GGUAGUGGAGUUCAAGUCCTT against Dnahc1, the z-score was inactive: 2.6.
For “GCGGAAGUGGAUUCUAGAGTT against 1110028N05Rik”, the z-score was inactive: -0.284.
In the case of “GGAGGAACAAGUUGUGCCUTT against 9430022F06Rik”, the z-score is inactive: 0.999.
